# According to patent publication US20060105013A1, “Osteopontin-coated surfaces and methods of use” (priority 2000, published 2006):
# B1: RSRRATEVFTPVVPTVDTYDGRGDSVVYGRRSKSKKFRRPAGAAGG PAGPAG PAGPAGPAGPA (peptide)
# chain: RSRRATEVFTPVVPTVDTYDGRGDSVVYGRRSKSKKFRRPAGAAGGPAGPAGPAGPAGPAGPA
# System: human osteoprogenitor cells
# Test: Peptide binding: attachment and spreading of human osteoprogenitor cells on coated plates
# Assay type: cell-based
# Settings: no antibody
# Protocol: Example 11 analyzes the binding and cell spread activity of various peptides. The activities were measured in 24-well plates that were coated overnight at 4° C. with 10 μg/ml of the indicated ligand or peptide and then blocked for one hour at room temperature with 10 mg/ml BSA (Bovine Serum Albumin) in PBS (Phosphate Buffered Saline). To preserve the integrity of the adhesion receptors osteoprogenitor cells were harvested from sub-confluent cultures by non-enzymatic cell dissociation solution (Sigma, St. Louis, Mo.). Cells were washed twice with PBS and re-suspended at a concentration of 1×10^5 cells/ml of sterile Ca^2+- and Mg^2+-free PBS, supplemented with 0.1% BSA and 1 mM sodium pyruvate. […] The total number of attached or spread cells in each well were counted microscopically using a Nikon Eclipse microscope equipped with a Sony digital camera. Total number of attached or spread cells were quantified using an Optima 5.2 image analysis system. […] To minimize variability inherent to cell attachment studies cells were scored as attached only when a defined nucleus observed accompanied by a transition from round to cuboidal cell morphology. Round cells that are loosely attached with no defined nucleus were scored as non-attached. […] Cell spreading was determined by membrane contour analysis and was scored according to increase in cell volume/surface area. […]
molecule,measurement,value
B1,% Spread,91.6%
same,% total attached cells,84.6%
